In the supplement of paper PMC10398353 one finds normalized bacterial growth data, which are given here for 23 molecules.

Where a name gives a salt, the structure may show the parent alone. The list shows a part of the results. Single values of this set are uncertain.

The subject of this test is Salmonella enterica serovar Typhimurium ST313 D23580. Description: normalized bacterial growth (OD600 20 h minus 0 h, interquartile-mean normalized) (fraction of plate interquartile mean); higher = more bacterial growth (less inhibition). The note with it: LPM (pH 5.8, low phosphate, low Mg2+), concentration: 10 µM, temperature: 37 °C.
Take `C1CCC(N=C(NC23CC4CC(CC(C4)C2)C3)N2CCOCC2)CC1`: the normalized bacterial growth came out at 0.838. The result for `NC1CCN(O)C1=O` (stereo not drawn) reads 1.12; that for `C[C@H]1CC[C@@]2(OC1)O[C@H]1C[C@H]3[C@@H]4CC[C@@H]5C[C@@H](O)CC[C@]5(C)[C@H]4CC[C@]3(C)[C@H]1[C@@H]2C`, 1.2. Molecule `COC(=O)[C@H](Cc1ccccc1)NC(=O)[C@@H](N)CC(=O)O` had a normalized bacterial growth of 1.23.

Consider `C[C@]12CC[C@@H]3c4ccc(O)cc4C[C@@H](CCCCCCCCC[S+]([O-])CCCC(F)(F)C(F)(F)F)[C@H]3[C@@H]1CC[C@@H]2O` (stereo partly drawn) [Fulvestrant], for which the normalized bacterial growth came out at 0.928. The molecule `O=C(O)[C@@H]1[C@H]2C[C@H]3c4[nH]c5ccccc5c4CCN3C[C@@H]2CC[C@@H]1O` [Yohimbinic acid monohydrate] had a normalized bacterial growth of 0.853. `COc1cc(CNC(=O)CCCC/C=C/C(C)C)ccc1O` gave a normalized bacterial growth of 1. Under `COC(=O)c1c(OC)cc2c(c1C)Oc1c(Cl)c(O)c(Cl)c(C)c1C(=O)O2` stands 1.07.

Take `CO/N=C(\C(=O)N[C@@H]1C(=O)N2C(C(=O)O)=C(COC(C)=O)CS[C@H]12)c1csc(N)n1`: the normalized bacterial growth is 0.214. Under `CO/N=C(\C(=O)N[C@@H]1C(=O)N2C(C(=O)O)=C(COC(C)=O)CS[C@H]12)c1csc(N)n1` [Cefotaxime sodium] stands 0.484; under `C=C[C@](C)(O)CC[C@@H]1[C@@]2(C)CCCC(C)(C)[C@@H]2CC[C@@]1(C)O`, 0.79. Under `CC(C)[C@H](N)C(=O)OCCOCn1cnc2c(=O)nc(N)[nH]c21` stands 1.06. `NCCC(=O)N[C@@H](Cc1c[nH]cn1)C(=O)O` returned a normalized bacterial growth of 0.957. As to `Cn1cc(C(F)(F)F)nc1-c1ccc(OCC(O)CNCCOc2ccc(O)c(C(N)=O)c2)cc1` (stereo not drawn), the normalized bacterial growth is 1.27.

As to `CN(C(=O)CN(CCO)CC(=O)N(C)C(C)(C)Cc1ccccc1)C(C)(C)Cc1ccccc1`, the normalized bacterial growth was determined as 0.0767. Molecule `COC(=O)N/N=C/c1c[n+]([O-])c2ccccc2[n+]1[O-]` yielded a normalized bacterial growth of 1.29. `CC1(C)O[C@@H]2C[C@H]3[C@@H]4C[C@H](F)C5=CC(=O)C=C[C@]5(C)[C@@]4(F)[C@@H](O)C[C@]3(C)[C@]2(C(=O)CO)O1`: the normalized bacterial growth is 1.13. The result for `CC(C)=CCc1c2c(c3occ(-c4ccc(O)c(O)c4)c(=O)c3c1O)C=CC(C)(C)O2` reads 1.28. Under `COc1cc(NS(=O)(=O)c2ccc(N)cc2)ncn1` stands 0.934; under `Cc1cc(C)nc(NS(=O)(=O)c2ccc(N)cc2)n1` [Sulfamethazine sodium salt], 1.04. Consider `Cc1cc(C)nc(NS(=O)(=O)c2ccc(N)cc2)n1`, for which the normalized bacterial growth is 1.13.

Turning to `Cc1ccc(OCC(O)C(C)NC(C)C)c2c1CCC2` (stereo not drawn) ["ICI 118,551 hydrochloride"], the normalized bacterial growth amounted to 0.946. The result for `NC(C(=O)O)C(O)C(=O)O` (racemic) [DL-threo-beta-hydroxyaspartic acid] reads 1.02.
